# In paper PMC7326492 (eLife, 2020):
# By UniProt entry, the sequences of proteins in these tests, tags left out. Residues count along the entry.
# UniProt P22004, residues 375-513: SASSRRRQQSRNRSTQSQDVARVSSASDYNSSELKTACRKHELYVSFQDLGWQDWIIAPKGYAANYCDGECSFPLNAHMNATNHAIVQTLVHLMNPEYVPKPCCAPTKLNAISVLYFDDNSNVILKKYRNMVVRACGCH
# No constants are given. Whether binding was seen depends on the method and setting. For part of these data: Binding seen in cells or lysates may run through a third protein. Some binding calls cover weakened binding; strength is not graded here. For part of these data: Tags and fused reporters may be left off the sequences shown.
# T1: ACVR1-Fc (UniProt Q04771)
# T1 sequence: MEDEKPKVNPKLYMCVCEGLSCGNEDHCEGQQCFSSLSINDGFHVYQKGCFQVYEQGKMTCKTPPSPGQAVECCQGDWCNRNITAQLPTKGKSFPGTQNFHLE
# T2: ACVR1 (UniProt Q04771)
# T2 sequence: T1 sequence
# T3: TGFBR1 (UniProt P36897)
# T3 sequence: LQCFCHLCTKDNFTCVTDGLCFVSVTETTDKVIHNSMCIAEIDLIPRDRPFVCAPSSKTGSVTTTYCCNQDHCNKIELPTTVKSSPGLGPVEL
# T4: TGFBR1, P36897
# T4 chain: T3 sequence
# T5: ACVR1-Fc, Q04771
# T5 chain: T1 sequence
# B1: Activin A.∆D406 (ligand, human, UniProt P08476 311-426, looked up)
# chain: GLECDGKVNICCKKQFFVSFKDIGWNDWIIAPSGYHANYCEGECPSHIAGTSGSSLSFHSTVINHYRMRGHSPFANLKSCCVPTKLRPMSMLYYDGQNIIKKDIQNMIVEECGCS
# notes: also called ActA.ΔD406; source: CHO-K1 cells expressing human Furin, stably expressed, purified (heparin, size exclusion, C4 reverse phase)
# B2: Activin A (ligand, human, UniProt P08476 311-426, looked up)
# chain: GLECDGKVNICCKKQFFVSFKDIGWNDWIIAPSGYHANYCEGECPSHIAGTSGSSLSFHSTVINHYRMRGHSPFANLKSCCVPTKLRPMSMLYYDDGQNIIKKDIQNMIVEECGCS
# notes: Activin A (inhibin beta A chain), human, mature region cloned downstream of the mouse Inhba pro-peptide; the mature dimer was isolated; rhActivin A from R and D Systems is named only for the in vivo implants; also called wild-type Activin A; Activin A WT; source: CHO-K1 cells expressing human Furin, stably expressed, purified (heparin, size exclusion, C4 reverse phase)
# B3: BMP7, P18075 293-431 (ligand)
# chain: STGSKQRSQNRSKTPKNQEALRMANVAENSSSDQRQACKKHELYVSFRDLGWQDWIIAPEGYAAYYCEGECAFPLNSYMNATNHAIVQTLVHFINPETVPKPCCAPTQLNAISVLYFDDSSNVILKKYRNMVVRACGCH
# B4: BMP9, Q9UK05 320-429 (ligand)
# chain: SAGAGSHCQKTSLRVNFEDIGWDSWIIAPKEYEAYECKGGCFFPLADDVTPTKHAIVQTLVHLKFPTKVGKACCVPTKLSPISVLYKDDMGVPTLKYHYEGMSVAECGCR
# B5: Activin B (ligand, UniProt P09529 293-407)
# chain: GLECDGRTNLCCRQQFFIDFRLIGWNDWIIAPTGYYGNYCEGSCPAYLAGVPGSASSFHTAVVNQYRMRGLNPGTVNSCCIPTKLSTMSMLYFDDEYNIVKRDVPNMIVEECGCA
# B6: BMP4 (ligand, UniProt P12644 293-408)
# chain: SPKHHSQRARKKNKNCRRHSLYVDFSDVGWNDWIVAPPGYQAFYCHGDCPFPLADHLNSTNHAIVQTLVNSVNSSIPKACCVPTELSAISMLYLDEYDKVVLKNYQEMVVEGCGCR
# B7: BMP10 (ligand, UniProt O95393 317-424)
# chain: NAKGNYCKRTPLYIDFKEIGWDSWIIAPPGYEAYECRGVCNYPLAEHLTPTKHAIIQALVHLKNSQKASKACCVPTKLEPISILYLDKGVVTYKFKYEGMAVSECGCR
# Experiments:
# ACVR1-Fc [1] = target: T1, ACVR1-Fc; assay: SPR; complexes of ligand•type II receptor extracellular domain formed at 1:2.5 ratio and injected over captured ACVR1B-Fc and ACVR1-Fc; both purified
# ACVR1-Fc [2] = target: T1, ACVR1-Fc; assay: SPR; 1000 RU of either ACVR1B-Fc or ACVR1-Fc captured on a sensor chip; ligands injected at 80 nM (A) or 1 μM (B); both purified
# ACVR1 = target: T2, ACVR1; assay: split reporter; U2OS cells (DiscoverX) expressing split beta-galactosidase fusions of a type I and a type II receptor; dose response of ligand, 16 hr; luminescence, read by the paper as type I receptor binding of the ligand; only the binder purified
# TGFBR1 = target: T3, TGFBR1; assay: as above
# TGFBR1, P36897 = target: T4, TGFBR1, P36897; assay: as above; conditions: remark: other sources report otherwise
# ACVR1-Fc, Q04771 = target: T5, ACVR1-Fc, Q04771; assay: SPR; 1000 RU of either ACVR1B-Fc or ACVR1-Fc captured on a sensor chip; ligands injected at 80 nM (A) or 1 μM (B); both purified; conditions: remark: other sources report otherwise
molecule,measurement,setting,value
Activin A•BMPR2 (from UniProt P08476 311-426; Q13873 27-150) (complex),binding,ACVR1-Fc [1],no binding
BMP6 (from UniProt P22004 375-513) (ligand),binding,ACVR1-Fc [2],binds
Activin A•ACVR2B (from UniProt P08476 311-426; Q13705 19-137) (complex),binding,ACVR1-Fc [1],no binding
Activin A•ACVR2A (from UniProt P08476 311-426; P27037 20-135) (complex),binding,ACVR1-Fc [1],no binding
B1,binding,ACVR1,binds weakly
same,binding,TGFBR1,binds
B2,binding,"TGFBR1, P36897",binds
B3,binding,"ACVR1-Fc, Q04771",binds
B4,binding,"ACVR1-Fc, Q04771",binds
B5,binding,ACVR1-Fc [2],no binding (tested: 80 nM (A) or 1 μM (B))
B6,binding,ACVR1-Fc [2],no binding (tested: 80 nM (A) or 1 μM (B))
B7,binding,ACVR1-Fc [2],no binding (tested: 80 nM (A) or 1 μM (B))
